Experimental findings from paper PMC5727297 are described below.

Results are given in words; binding and its absence hold for the method and conditions named. Some results given as binding are weak or reduced against the parent protein; the word gives no strength.

For the assay, the target named is SOD-like domain of human CCS (CCS-D2), expressed in human cells (human) (UniProt O14618). Description: NMR of cell lysates; 1H-15N SOFAST-HMQC on lysates (freeze-thaw in PBS, cleared) of the HEK293T cells co-expressing [U-15N]-labelled SOD1 (WT or mutant) and CCS-D2, 950 MHz.

B1: SOD-like domain of human CCS (CCS-D2), expressed in human cells (domain or fragment, UniProt O14618 84-234)
chain: QNLGAAVAILGGPGTVQGVVRFLQLTPERCLIEGTIDGLEPGLHGLHVHQYGDLTNNCNSCGNHFNPDGASHGGPQDSDRHRGDLGNVRADADGRAIFRMEDEQLKVWDVIGRSLIIDEGEDDLGRGGHPLSKITGNSGERLACGIIARSA
Take B1: the binding result is reported as “binds”.
